Data: article PMC11046792
No constants are given. Whether binding was seen depends on the method and setting. Binding seen in cells or lysates may run through a third protein. A result given as binding can be weak or reduced; the word gives no strength. Tags and fused reporters may be left off the sequences shown.

Biological target: FLAG-ZNRF1 (pcDNA3.1-FLAG-ZNRF1, non-transmembrane region fragment)
Assay: co-IP; HEK293 cells transfected with tagged NCEH1 and ZNRF1 plasmids (1 µg, 6 h, then 48 h); interactions examined by immunoblotting

B1: HA-NCEH1 (pcDNA3.1-HA-NCEH1) (enzyme, UniProt Q8BLF1 1-408)
chain: MRSSCVLLAALLALAAYYVYIPLPSAVSDPWKLMLLDATFRGAQQVSNLIHSLGLNHHLIALNFIITSFGKQSARSSPKVKVTDTDFDGVEVRVFEGSPKPEEPLRRSVIYIHGGGWALASAKISYYDQLCTTMAEELNAVIVSIEYRLVPQVYFPEQIHDVIRATKYFLQPEVLDKYKVDPGRVGISGDSAGGNLAAALGQQFTYVASLKNKLKLQALVYPVLQALDFNTPSYQQSMNTPILPRHVMVRYWLDYFKGNYDFVEAMIVNNHTSLDVERAAALRARLDWTSLLPSSIKKNYKPIMQTTGNARIVQEIPQLLDAAASPLIAEQEVLEALPKTYILTCEHDVLRDDGIMYAKRLESAGVNVTLDHFEDGFHGCMIFTSWPTNFSVGIRTRNSYIKWLDQNL
- binding: binds
